Measurements reported in PubChem BioAssay AID504786 (Drosophila RNAi Screening Center, 2011).

Aim: 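Fly genes required for HIF-dependent transcription when hypoxia is mimicked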 (primary screen)
Cells: Drosophila S2 cells with a stable HIF luciferase reporter
Reagent: long dsRNA against Drosophila genes, about 0.2 µg dsRNA per well of a 384-well plate
Timing: three days of knock-down, then 20 h of DFO before reading
Conditions: desferrioxamine (DFO) at 100 µM, an iron chelator that mimics hypoxia, for 20 h
Read-out: 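HIF reporter luminescence in cells given 100 µM DFO for 20 h, using the mouse ldh-a hypoxia-response element, scored as per-plate z-scores; higher means greater loss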
Reading the numbers: z-score: higher = stronger loss of HIF reporter signal
The screen tested about 21,000 reagents; shown is an unselected part of those with a known target gene and a result. 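Primary screen; positive scores mean lost reporter signal, so the sign may be inverted from the usual convention.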 The numbers tell different reagents against one gene apart. A plus sign joins genes that one reagent is predicted to hit. Further read-outs or replicates are left out here.

alpha-Spec (GeneID 38231) | z-score, replicate 1: -0.3
CG5217 (GeneID 42311) | z-score, replicate 1: -0.3
gom (GeneID 43934) | z-score, replicate 1: -0.2
sordd2 + sordd1 | z-score, replicate 1: -0.4
CG12661 (GeneID 31822) | z-score, replicate 1: -0.1
CstF64 (GeneID 42239) | z-score, replicate 1: -0.1
Rnf146 (GeneID 40144) | z-score, replicate 1: -0.4
CG14515 (GeneID 43454) | z-score, replicate 1: -0.3
CG43333 (GeneID 34830) | z-score, replicate 1: -0.3
l(3)S110416 (retired record) (GeneID 46908) | z-score, replicate 1: -0.1
CG7299 (GeneID 34468) | z-score, replicate 1: 0
CG9308 (GeneID 37507) | z-score, replicate 1: -0.1
Osi8 (GeneID 40762) | z-score, replicate 1: -0.2
Cht12 (GeneID 246535) | z-score, replicate 1: 0.2
CG14434 (GeneID 31632) | z-score, replicate 1: -0.3
Arp53D (GeneID 36879) | z-score, replicate 1: -0.2
CG34284 (GeneID 5740234) | z-score, replicate 1: -0.8
CG17029 (GeneID 39740) | z-score, replicate 1: -0.3

3 neighbouring reagents already listed, quoted:
sordd2 + sordd1 | z-score, replicate 1: -0.4
CG12661 (GeneID 31822) | z-score, replicate 1: -0.1
CstF64 (GeneID 42239) | z-score, replicate 1: -0.1

Further reagents follow:
CG17896 (GeneID 30995) | z-score, replicate 1: -0.2
Bap60 (GeneID 32268) | z-score, replicate 1: 4.4
CG17739 (GeneID 36333) | z-score, replicate 1: -0.3
shps (GeneID 42892) | z-score, replicate 1: 0
Or67c (GeneID 39189) | z-score, replicate 1: -0.3
CG17568 (GeneID 35198) | z-score, replicate 1: -0.3
CG43693 (GeneID 39231) #1 | z-score, replicate 1: 0.2
CG43693 (GeneID 39231) #2 | z-score, replicate 1: -0.2
UQCR-Q (GeneID 39950) | z-score, replicate 1: 0.8
FER (GeneID 41118) #1 | z-score, replicate 1: -0.2
FER (GeneID 41118) #2 | z-score, replicate 1: 0.1
CG7542 (GeneID 39960) | z-score, replicate 1: -0.2
CG2955 (GeneID 33622) | z-score, replicate 1: -0.3
CG18748 (GeneID 59144) | z-score, replicate 1: -0.5
CG15760 (GeneID 32324) | z-score, replicate 1: -0.2
AdoR (GeneID 43583) | z-score, replicate 1: 4.3
CG15482 (GeneID 34717) | z-score, replicate 1: -0.2
rho-5 (GeneID 2768944) | z-score, replicate 1: -0.4
CG42397 (GeneID 8673976) | z-score, replicate 1: -0.3
MED17 (GeneID 42175) | z-score, replicate 1: 0.5
CG13667 (GeneID 38956) | z-score, replicate 1: -0.1
Ssl (GeneID 37909) | z-score, replicate 1: -0.1
obst-F (GeneID 40209) | z-score, replicate 1: -0.2
Acp32CD (GeneID 34531) | z-score, replicate 1: 0
mus302 (GeneID 39874) | z-score, replicate 1: -0.2
CG17134 (GeneID 34494) | z-score, replicate 1: -0.1
CG9743 (GeneID 43593) | z-score, replicate 1: -0.2
dop (GeneID 39686) | z-score, replicate 1: -0.2
CG18853 (GeneID 246511) | z-score, replicate 1: -0.2
AIMP3 (GeneID 246507) | z-score, replicate 1: -0.3
CG11906 (GeneID 37209) | z-score, replicate 1: -0.2
Acbp1 (GeneID 34111) | z-score, replicate 1: -0.3
cg (GeneID 36571) | z-score, replicate 1: 5.1
